From the supplement of paper PMC3334620
Whole data set: some 33,000 sequences, median “E-score (-0.5 to 0.5)” near -0.015, cut for the highest 2% near 0.3. The list shows a part of the results.

The sequences below were run against T1, Abf1 (UniProt P14164) (assay: PBM E-score (8-mer binding enrichment) (E-score (-0.5 to 0.5)); higher = stronger / more preferred TF binding). Details: protein concentration: 200 nM; construct: GST-full length.
T1 sequence: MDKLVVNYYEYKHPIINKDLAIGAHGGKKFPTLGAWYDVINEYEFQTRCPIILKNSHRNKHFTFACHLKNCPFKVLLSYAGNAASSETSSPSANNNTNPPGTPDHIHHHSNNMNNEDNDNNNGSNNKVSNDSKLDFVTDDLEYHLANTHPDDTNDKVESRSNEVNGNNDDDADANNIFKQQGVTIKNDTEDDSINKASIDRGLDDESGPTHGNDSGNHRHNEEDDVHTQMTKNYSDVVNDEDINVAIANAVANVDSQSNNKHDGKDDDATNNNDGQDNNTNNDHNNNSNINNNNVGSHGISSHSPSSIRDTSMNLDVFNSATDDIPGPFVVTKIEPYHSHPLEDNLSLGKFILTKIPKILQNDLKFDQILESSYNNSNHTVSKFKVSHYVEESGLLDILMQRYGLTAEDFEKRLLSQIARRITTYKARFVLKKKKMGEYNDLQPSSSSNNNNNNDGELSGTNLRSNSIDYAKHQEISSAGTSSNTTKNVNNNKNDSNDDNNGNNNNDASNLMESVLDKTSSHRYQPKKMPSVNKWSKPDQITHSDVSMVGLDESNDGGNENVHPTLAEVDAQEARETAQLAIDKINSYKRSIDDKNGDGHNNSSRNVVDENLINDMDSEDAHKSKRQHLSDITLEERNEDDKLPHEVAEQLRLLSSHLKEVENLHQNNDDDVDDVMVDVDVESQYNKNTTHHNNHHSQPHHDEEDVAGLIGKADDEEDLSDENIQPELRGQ
Protocol: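 Universal 'all 10-mer' protein binding microarrays (Agilent AMADID 015681) probed with GST-tagged S. cerevisiae TFs (full-length or DBD) made by in vitro transcription/translation (PURExpress), about 100-200 nM. Bound TF was detected with fluorescent anti-GST. Each ungapped 8-mer (which stands for itself and its reverse complement) is scored by the PBM enrichment score (E-score), a modified Wilcoxon-Mann-Whitney statistic from -0.5 to +0.5, computed with the Universal PBM Analysis Suite. Scale: above 0.35 generally sequence-specific binding.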

Sequence	PBM E-score
CGAGTTAC	0.12
GCCGGTCA	-0.0382
GGTGTTAA	0.0588
ATCATGCA	0.0322
AGAGGTTC	-0.148
CTCAATTC	-0.134
CTCACGAG	0.0775
CCGAATAC	0.0415
AAATAATG	0.207
GGACGAAC	0.323
ATATGGTA	0.168
AACGTAGT	0.0741
CACATTGA	0.0367
GTAAGATA	0.178
ACCCTGGC	-0.103
CGTTGTAA	0.167
GCTAAGCA	-0.0777
ACTACATC	0.07
CTCGTCAC	0.336
TATCAAAA	0.232
GATCACAA	0.26
ATATACAA	0.0677
GCCCGAGA	-0.194
CCAAGCAC	-0.102
GAAACGGC	0.00884

Sequence	PBM E-score
CAACTTTA	0.116
CAGCTTGG	-0.144
ACGGGTAA	0.0732
GCGAAACC	-0.0603
CACCGCAC	-0.14
GCATGGCA	-0.0479
CCGAGAGC	-0.176
AAAGGAAC	-0.0426
TCTATAGA	-0.184
GCGCCCAA	0.0467
CTAACCTC	-0.0908
AGGCCCAT	-0.282
GAGGCCCC	-0.298
AAAGGTTA	-0.0444
ACCGCCGC	-0.0966
ATTAGCAA	0.206
GGTGATAC	0.186
AAAAGCAG	-0.151
ACCGCGTC	0.099
TATCGTAA	0.243
CACAGCAG	-0.113
ACGGGAGC	0.138
ACACGTGC	0.118
ATAAGGAC	0.0459
CAACGGTA	0.0381

An excerpt of these results, as labelled records:
GAGGCCCC
  PBM E-score: -0.298
AAAGGTTA
  PBM E-score: -0.0444
ACCGCCGC
  PBM E-score: -0.0966

Following part.

Sequence	PBM E-score
AATACGTA	0.135
ATTATCAC	0.434
TATCTTAA	0.126
TAGGTCCA	-0.0215
CCAGATGA	0.0858
CCCAAGCC	-0.131
CAGCCACA	-0.154
AATCGATT	0.146
CTGGCACC	-0.0999
CTGCGTAC	0.0269
CATGAACG	-0.125
AGTCTCAC	-0.167
GGGGGCGA	-0.365
ACTGTGAT	0.114
CTCTATAA	-0.129
ATAAGCAC	-0.0466
TACTGACA	-0.0216
CATATAGG	-0.0562
ACCGGCGA	-0.128
CTGGGTGC	-0.289
ACATCATC	0.328
GGCCAATA	0.0241
AAACTATC	0.0484
AGCTTACA	0.0321
CTCGTAGA	0.106

Sequence	PBM E-score
CGATTCCG	-0.0782
GAAGTGGA	0.00297
AAACCAGC	0.0956
GGGAGGAA	-0.22
TAGCGGCA	0.00307
CGGTCTTC	0.0029
GTGATCGA	0.227
TCCGGCGA	0.069
GACCTCCA	-0.121
CCGGACAA	-0.0436
AACGCGGC	-0.116
GGAGTATA	0.0773
ATTGGCCA	-0.232
TGGTGCAA	-0.133
GTCCCTTA	0.176
CCCATGAG	-0.117
ATGAATGA	0.175
GGAAAGCC	-0.0669
GAAGATGA	0.214
ACCGTACA	0.327
AACGACGA	0.346
GAGAGCTA	-0.051
CTGACTAC	-0.02
ACTAAACG	0.165
GTACGCCA	-0.173

Sequence	PBM E-score
ATTGACCC	0.0512
ACGGCGCT	0.09
ACTTAAGG	-0.0317
ATAGGTGG	-0.0214
ACTCAACG	0.161
CCTAAATA	0.0526
AGCACCTC	-0.158
ACCCCAAA	-0.0257
GGGGCCCA	-0.256
CAAATCAG	0.0917
TACGACGA	0.329
GGCTCATA	-0.186
CTGATAGC	-0.128
CATTCCGA	-0.00972
AAACAAAC	0.0259
AAGATCTG	-0.15
CTCCCAAA	0.126
AAAATGGT	0.166
CGCATCAA	0.081
ATATTTCA	0.23
AACAAGGG	-0.338
CACGTCCC	-0.0203
AGGTTGAA	0.0563
AAGAGCTG	-0.176
AAATACCG	0.0575

Sequence	PBM E-score
ATGTCCTA	0.143
ACATCCCT	0.0803
TGTAGGAA	-0.084
CCTGTTTC	-0.0494
CCGAAATA	0.12
ATTGAAAG	-0.00524
AGCAGTCA	-0.114
AGGCCCAA	-0.146
TTATAGAA	0.122
CGCCACAG	-0.0345
CCTGCAGC	-0.0974
CCGTTACA	0.192
GCCGCATA	0.0431
TATCCATA	0.126
ACTTTTGG	0.00974
AAACCGTG	0.111
TGCCAACA	0.114
TATCGGGA	-0.151
AAATAGAT	0.146
AGTTAGTG	-0.111
ACACGGCT	0.076
AATTGCTG	0.136
ATACCAAC	0.0466
GTCAGACA	-0.0287
ATGCGGCC	-0.109

Sequence	PBM E-score
GCCATGAA	-0.0667
CATACGCG	-0.0647
CCCTTGCA	-0.341
GGAGACGA	0.187
CCAATGAC	0.094
CGGCCACC	-0.142
TAACCCCA	-0.223
GCATCGAC	0.104
TCCTAAAA	0.118
CACCAGAA	-0.0535
AGGACACA	0.0154
GATGACGA	0.265
CTTCCGAA	0.0241
ATCAGCTG	0.153
CCAGGCGA	-0.161
GATCGTTA	0.224
CTAGAAGA	-0.116
ACCGGCCC	-0.286
AAGCTCCA	-0.28
TTAGGAAA	0.00982
CATTCCAA	0.0167
CGCCAGAA	-0.0306

Part of the list above in a different format.

| Sequence | PBM E-score |
| --- | --- |
| GGAGACGA | 0.187 |
| GCATCGAC | 0.104 |
| TCCTAAAA | 0.118 |
| AGGACACA | 0.0154 |
| CGCCAGAA | -0.0306 |
